The results in this text go back to paper PMC6155021, “Ancient and modern anticonvulsants act synergistically in a KCNQ potassium channel binding pocket” (Nature Communications, 2018).

This experiment has as its target KCNQ1 (Homo sapiens, UniProt P51787). As to conditions: IVA 500 µM. The source says: cRNA transcripts encoding human KCNA1, KCNQ1, KCNQ2, KCNQ3, KCNQ4, or KCNQ5 were generated by in vitro transcription using the T7 polymerase message machine kit (Thermo Fisher Scientific), after vector linearization, from cDNA sub-cloned into plasmids incorporating X. laevis β-globin 5′ and 3′ UTRs flanking the coding region to enhance translation and cRNA stability. cRNA was quantified by spectrophotometry. Mutant cDNAs were generated by site-directed mutagenesis using a QuikChange kit according to manufacturer’s protocol (Stratagene, San Diego, CA) and corresponding cRNAs prepared as above. Defolliculated stage V and VI X. laevis oocytes (Ecocyte Bioscience, Austin, TX) were injected with Kv channel α subunit cRNAs (10 ng total per oocyte). Oocytes were incubated at 16 °C in Barth’s saline solution (Ecocyte) containing penicillin and streptomycin, with daily washing, for 3–5 days prior to two-electrode voltage-clamp (TEVC) recording.
Oocytes were placed in a small-volume oocyte bath (Warner) and viewed with a dissection microscope. Chemicals were sourced from Sigma. […] Currents were recorded in response to pulses between −80 and +40 mV at 20 mV intervals, or a single pulse to +40 mV, from a holding potential of −80 mV, to yield current–voltage relationships, current magnitude, and for quantifying activation rate. […]

`CC(C)CC(=O)O` [IVA, isovaleric acid]: the “sensitivity of KCNQ1” value is “insensitive”.
